Source: the supplement of paper PMC11732987, “Enantioselective OTUD7B fragment discovery through chemoproteomics screening and high-throughput optimisation” (Communications Chemistry, 2025)
Some of the results follow. The data scatter; read single values as rough.

The chains behind the UniProt entries cited, without tags or fusion partners. Where a name states a change or a piece, a line headed by the entry shows the natural chain unless it says otherwise. Residues count along the entry.
UniProt O60264, whole entry, looked up: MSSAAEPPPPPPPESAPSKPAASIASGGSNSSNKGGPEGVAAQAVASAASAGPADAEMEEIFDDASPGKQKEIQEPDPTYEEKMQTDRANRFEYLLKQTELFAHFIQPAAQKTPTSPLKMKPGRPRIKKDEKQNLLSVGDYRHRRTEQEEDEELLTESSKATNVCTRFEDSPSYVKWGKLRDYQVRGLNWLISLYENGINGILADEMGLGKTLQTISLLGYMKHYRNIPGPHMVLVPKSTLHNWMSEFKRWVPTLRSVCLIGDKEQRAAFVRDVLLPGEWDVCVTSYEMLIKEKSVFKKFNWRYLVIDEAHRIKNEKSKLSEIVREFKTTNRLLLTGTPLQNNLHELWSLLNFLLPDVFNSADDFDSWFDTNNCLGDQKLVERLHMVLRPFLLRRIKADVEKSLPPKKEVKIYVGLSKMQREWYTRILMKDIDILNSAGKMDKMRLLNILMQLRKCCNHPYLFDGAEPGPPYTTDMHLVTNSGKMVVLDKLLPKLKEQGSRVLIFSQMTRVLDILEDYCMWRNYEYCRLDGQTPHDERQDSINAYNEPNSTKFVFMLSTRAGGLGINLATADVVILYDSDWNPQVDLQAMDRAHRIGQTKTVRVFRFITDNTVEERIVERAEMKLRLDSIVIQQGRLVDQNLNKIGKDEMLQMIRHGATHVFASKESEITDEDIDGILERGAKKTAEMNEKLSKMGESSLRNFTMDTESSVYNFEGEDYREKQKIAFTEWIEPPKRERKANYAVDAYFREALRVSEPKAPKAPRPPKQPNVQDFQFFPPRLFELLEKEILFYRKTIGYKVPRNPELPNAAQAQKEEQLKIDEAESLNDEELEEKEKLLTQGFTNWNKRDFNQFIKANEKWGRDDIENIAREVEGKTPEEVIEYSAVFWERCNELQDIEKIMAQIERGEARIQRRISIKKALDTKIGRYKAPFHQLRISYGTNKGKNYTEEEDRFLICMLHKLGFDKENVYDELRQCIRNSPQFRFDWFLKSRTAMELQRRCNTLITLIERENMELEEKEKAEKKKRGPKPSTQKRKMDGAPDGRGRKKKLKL
UniProt Q8TBP6: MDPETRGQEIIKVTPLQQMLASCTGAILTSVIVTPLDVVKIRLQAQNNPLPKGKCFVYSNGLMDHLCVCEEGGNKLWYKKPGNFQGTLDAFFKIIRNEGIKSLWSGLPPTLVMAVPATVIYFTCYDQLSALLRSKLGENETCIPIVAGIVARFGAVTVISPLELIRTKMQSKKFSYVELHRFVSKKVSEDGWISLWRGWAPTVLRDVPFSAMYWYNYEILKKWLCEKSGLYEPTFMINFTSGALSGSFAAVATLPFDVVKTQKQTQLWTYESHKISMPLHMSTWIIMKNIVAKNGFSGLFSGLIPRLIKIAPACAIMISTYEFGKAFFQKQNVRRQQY
UniProt P57768, 54-74: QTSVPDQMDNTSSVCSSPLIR
UniProt O95347, whole entry, looked up: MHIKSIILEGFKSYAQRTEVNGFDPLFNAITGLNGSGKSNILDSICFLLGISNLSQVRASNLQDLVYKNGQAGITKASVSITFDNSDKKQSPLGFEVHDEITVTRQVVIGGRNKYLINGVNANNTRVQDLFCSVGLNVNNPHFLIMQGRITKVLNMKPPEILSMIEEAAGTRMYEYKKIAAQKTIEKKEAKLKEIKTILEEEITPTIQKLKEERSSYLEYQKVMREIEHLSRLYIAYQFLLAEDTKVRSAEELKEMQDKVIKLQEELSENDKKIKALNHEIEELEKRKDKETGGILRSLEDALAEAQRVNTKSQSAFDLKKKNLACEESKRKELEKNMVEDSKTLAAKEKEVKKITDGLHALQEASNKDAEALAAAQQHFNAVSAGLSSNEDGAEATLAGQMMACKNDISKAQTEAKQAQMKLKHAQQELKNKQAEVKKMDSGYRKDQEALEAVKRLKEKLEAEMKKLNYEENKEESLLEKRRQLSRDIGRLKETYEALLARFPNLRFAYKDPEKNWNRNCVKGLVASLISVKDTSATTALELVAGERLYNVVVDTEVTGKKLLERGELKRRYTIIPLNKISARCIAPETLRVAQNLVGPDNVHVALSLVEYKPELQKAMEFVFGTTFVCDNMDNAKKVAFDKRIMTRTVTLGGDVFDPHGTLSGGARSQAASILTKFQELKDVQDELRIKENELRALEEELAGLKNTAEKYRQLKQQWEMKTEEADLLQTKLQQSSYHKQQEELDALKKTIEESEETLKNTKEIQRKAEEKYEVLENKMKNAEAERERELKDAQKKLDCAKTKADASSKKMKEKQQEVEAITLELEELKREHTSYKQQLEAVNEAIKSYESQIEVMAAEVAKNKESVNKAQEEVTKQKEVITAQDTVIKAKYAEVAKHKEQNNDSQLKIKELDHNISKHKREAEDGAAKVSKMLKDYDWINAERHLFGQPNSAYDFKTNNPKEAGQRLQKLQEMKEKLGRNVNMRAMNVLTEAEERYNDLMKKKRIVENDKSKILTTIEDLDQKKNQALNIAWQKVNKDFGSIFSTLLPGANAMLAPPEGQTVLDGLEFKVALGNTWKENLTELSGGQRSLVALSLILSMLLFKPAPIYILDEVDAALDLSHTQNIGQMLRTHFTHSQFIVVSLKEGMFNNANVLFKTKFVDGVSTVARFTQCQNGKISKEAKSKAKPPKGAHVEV
UniProt Q15797: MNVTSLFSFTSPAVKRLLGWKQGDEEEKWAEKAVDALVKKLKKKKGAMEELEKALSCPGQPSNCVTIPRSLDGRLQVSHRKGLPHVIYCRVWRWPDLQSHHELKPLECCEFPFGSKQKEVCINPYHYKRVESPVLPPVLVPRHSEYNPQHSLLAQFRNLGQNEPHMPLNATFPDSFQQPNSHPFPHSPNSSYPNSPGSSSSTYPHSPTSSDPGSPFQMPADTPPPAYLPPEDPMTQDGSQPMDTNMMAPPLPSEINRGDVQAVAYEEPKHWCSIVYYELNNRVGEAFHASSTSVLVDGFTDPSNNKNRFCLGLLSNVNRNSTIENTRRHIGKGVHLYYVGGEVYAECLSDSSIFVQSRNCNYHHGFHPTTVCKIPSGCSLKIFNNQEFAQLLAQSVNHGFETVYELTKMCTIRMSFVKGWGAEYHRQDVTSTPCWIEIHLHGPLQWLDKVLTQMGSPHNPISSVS
UniProt Q96BD8: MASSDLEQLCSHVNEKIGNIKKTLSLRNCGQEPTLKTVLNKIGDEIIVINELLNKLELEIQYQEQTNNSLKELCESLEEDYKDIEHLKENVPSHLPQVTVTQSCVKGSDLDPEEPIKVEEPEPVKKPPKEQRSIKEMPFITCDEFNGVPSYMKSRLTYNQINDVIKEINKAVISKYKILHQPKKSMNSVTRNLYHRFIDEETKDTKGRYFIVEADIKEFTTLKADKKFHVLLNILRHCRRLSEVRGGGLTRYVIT
UniProt Q9NXE4: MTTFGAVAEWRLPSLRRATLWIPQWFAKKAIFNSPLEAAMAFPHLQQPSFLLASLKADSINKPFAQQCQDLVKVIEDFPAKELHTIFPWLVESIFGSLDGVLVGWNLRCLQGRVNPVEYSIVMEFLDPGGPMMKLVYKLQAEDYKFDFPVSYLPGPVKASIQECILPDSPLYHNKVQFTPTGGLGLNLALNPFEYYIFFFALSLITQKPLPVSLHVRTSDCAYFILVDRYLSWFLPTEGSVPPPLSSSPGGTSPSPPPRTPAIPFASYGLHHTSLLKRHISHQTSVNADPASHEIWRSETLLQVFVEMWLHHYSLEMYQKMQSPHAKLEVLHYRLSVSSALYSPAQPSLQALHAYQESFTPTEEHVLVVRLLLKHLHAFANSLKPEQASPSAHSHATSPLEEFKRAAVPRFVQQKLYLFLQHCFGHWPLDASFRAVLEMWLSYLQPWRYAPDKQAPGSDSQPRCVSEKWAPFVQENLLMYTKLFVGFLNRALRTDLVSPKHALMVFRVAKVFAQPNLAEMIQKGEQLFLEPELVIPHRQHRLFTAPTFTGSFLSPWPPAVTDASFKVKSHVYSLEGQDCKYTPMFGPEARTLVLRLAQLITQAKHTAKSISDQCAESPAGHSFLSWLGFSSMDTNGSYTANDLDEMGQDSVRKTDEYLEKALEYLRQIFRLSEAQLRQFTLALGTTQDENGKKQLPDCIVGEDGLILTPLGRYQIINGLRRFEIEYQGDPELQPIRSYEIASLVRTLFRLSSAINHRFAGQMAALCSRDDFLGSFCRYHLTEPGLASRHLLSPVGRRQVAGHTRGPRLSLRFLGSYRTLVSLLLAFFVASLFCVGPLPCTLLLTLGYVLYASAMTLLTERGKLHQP
UniProt P43003, whole entry, looked up: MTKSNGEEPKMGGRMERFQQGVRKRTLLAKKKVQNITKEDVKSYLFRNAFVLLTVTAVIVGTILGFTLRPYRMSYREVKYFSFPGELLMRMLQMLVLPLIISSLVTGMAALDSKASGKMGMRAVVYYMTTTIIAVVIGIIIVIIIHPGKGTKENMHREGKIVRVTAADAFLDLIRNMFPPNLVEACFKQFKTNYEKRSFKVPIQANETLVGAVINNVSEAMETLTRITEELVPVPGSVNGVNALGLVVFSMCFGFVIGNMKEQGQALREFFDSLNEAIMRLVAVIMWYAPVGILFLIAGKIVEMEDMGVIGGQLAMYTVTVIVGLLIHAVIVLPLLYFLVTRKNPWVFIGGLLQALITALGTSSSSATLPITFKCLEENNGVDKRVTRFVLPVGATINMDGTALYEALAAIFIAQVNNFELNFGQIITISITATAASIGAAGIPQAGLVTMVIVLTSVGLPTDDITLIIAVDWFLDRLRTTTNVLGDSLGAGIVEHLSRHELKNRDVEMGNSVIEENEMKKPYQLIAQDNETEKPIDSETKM
UniProt Q96R06, 1088-1112: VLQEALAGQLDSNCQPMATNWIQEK
UniProt P63208, whole entry, looked up: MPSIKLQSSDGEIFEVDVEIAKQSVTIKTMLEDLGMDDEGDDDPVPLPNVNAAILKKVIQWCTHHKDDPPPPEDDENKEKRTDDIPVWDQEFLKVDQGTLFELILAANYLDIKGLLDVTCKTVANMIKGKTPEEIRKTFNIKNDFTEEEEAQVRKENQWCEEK
UniProt O43772: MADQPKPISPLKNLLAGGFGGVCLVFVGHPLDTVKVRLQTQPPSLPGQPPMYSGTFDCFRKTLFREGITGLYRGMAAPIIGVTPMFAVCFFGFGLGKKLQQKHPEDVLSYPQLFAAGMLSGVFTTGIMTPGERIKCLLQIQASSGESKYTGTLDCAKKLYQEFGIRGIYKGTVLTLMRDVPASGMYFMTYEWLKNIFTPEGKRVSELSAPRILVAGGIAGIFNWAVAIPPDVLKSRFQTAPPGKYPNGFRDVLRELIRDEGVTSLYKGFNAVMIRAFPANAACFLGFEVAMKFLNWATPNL
UniProt Q07617: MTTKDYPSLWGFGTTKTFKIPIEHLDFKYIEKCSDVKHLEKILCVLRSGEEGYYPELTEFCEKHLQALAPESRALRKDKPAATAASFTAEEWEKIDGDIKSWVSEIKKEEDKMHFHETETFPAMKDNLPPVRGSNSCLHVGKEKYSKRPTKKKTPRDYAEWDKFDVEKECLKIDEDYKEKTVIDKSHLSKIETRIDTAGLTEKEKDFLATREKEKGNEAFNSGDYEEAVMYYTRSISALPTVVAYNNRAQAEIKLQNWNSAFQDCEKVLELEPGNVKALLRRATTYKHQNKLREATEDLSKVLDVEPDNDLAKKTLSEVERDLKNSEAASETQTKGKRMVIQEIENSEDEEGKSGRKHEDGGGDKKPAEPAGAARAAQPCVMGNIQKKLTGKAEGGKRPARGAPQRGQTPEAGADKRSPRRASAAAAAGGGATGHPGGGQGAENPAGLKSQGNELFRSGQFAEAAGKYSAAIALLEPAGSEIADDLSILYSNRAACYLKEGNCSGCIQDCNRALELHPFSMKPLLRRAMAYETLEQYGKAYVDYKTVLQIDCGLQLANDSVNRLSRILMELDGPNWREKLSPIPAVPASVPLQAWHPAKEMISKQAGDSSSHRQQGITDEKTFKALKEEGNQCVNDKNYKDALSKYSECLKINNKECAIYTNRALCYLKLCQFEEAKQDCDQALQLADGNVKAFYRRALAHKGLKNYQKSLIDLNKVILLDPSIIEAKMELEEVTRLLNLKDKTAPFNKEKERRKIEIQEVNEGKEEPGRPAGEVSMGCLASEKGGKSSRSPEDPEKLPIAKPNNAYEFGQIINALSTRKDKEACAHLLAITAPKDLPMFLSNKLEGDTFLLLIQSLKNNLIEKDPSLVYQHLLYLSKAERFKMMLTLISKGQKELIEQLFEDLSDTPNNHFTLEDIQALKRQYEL
UniProt P05141: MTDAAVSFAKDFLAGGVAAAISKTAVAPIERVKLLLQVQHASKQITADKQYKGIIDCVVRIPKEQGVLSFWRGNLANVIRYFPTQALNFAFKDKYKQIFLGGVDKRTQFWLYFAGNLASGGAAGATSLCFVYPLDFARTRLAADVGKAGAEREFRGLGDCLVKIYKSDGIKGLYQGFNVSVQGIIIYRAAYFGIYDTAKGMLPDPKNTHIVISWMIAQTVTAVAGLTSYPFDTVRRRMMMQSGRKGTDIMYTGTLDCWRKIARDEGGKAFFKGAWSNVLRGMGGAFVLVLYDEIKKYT

compound: ClCC(=O)N[C@H]1CCCc2ccccc12; assay: log2 mean competition ratio of IA-DTB cysteine labelling (DMSO/compound) (log2 ratio); higher = stronger cysteine engagement by compound; settings: 200 µM; treatment time: 4 h; cell line lysate: HEK293T
Protocol: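 IA-DTB competitive cysteine chemoproteomics in HEK293T RIPA lysate. Lysates were treated with compound 29 or 30 at 50 or 200 µM for 4 h, then IA-DTB (500 µM, 1 h), trypsin-digested, NeutrAvidin-enriched and analysed by diaPASEF. Competition ratio = intensity DMSO / intensity compound (n=4 treated, n=64 DMSO); binding: mean log2 CR ≥ 1 and p ≤ 0.05 plus QC filters. Target is the cysteine site.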

**Q.** For SMC1B C102 (UniProt Q8NDV3), which “log2 mean competition ratio” value is on record?
**A.** 0.419

**Q.** SLC30A1 C469 (UniProt Q9Y6M5) was tested. Which “log2 mean competition ratio” value did it give?
**A.** 0.403

**Q.** SLC6A15 C91 was tested. Which “log2 mean competition ratio” value did it give?
**A.** 0.329

**Q.** How did the “log2 mean competition ratio” value turn out when SMARCA5 C165 (UniProt O60264) was run?
**A.** 0.133

**Q.** Which “log2 mean competition ratio” value does the source give for SLC25A40 C142 (UniProt Q8TBP6) here?
**A.** -0.498

**Q.** For SNX16 C68 (UniProt P57768), which “log2 mean competition ratio” value is on record?
**A.** 0.32

**Q.** Which “log2 mean competition ratio” value does the source give for SOCS6 C342 (UniProt O14544) here?
**A.** 0.2

**Q.** How did the “log2 mean competition ratio” value turn out when SMC2 C326 (UniProt O95347) was run?
**A.** 0.0172

**Q.** Which “log2 mean competition ratio” value does the source give for SNX7 C325 here?
**A.** 0.0489

**Q.** How did the “log2 mean competition ratio” value turn out when SLX4IP C299 (UniProt Q5VYV7) was run?
**A.** 0.0787

**Q.** For SMAD1 C121 (UniProt Q15797), which “log2 mean competition ratio” value is on record?
**A.** 0.141

**Q.** For SKA1 C10 (UniProt Q96BD8), which “log2 mean competition ratio” value is on record?
**A.** 0.148

**Q.** Which “log2 mean competition ratio” value does the source give for SKIV2L C247 (UniProt Q15477) here?
**A.** -0.133

**Q.** For SKA1 C142 (UniProt Q96BD8), which “log2 mean competition ratio” value is on record?
**A.** 0.0902

**Q.** For SLC25A13 C565 (UniProt Q9UJS0), which “log2 mean competition ratio” value is on record?
**A.** 0.0824

**Q.** SMPD4 C68 (UniProt Q9NXE4) was tested. Which “log2 mean competition ratio” value did it give?
**A.** -0.127

**Q.** How did the “log2 mean competition ratio” value turn out when SMARCC2 C495 (UniProt Q8TAQ2) was run?
**A.** -0.238

**Q.** Which “log2 mean competition ratio” value does the source give for SMARCA1 C377 (UniProt P28370) here?
**A.** 0.104

**Q.** With SMCHD1 C1710 (UniProt A6NHR9) as the target, how does the “log2 mean competition ratio” value read?
**A.** 0.0385

**Q.** How did the “log2 mean competition ratio” value turn out when SLC1A3 C375 (UniProt P43003) was run?
**A.** 0.339

**Q.** How did the “log2 mean competition ratio” value turn out when SPAG5 C1101 (UniProt Q96R06) was run?
**A.** 0.527

**Q.** Which “log2 mean competition ratio” value does the source give for SKP1 C120 (UniProt P63208) here?
**A.** 0.0852

**Q.** SLC25A20 C155 (UniProt O43772) was tested. Which “log2 mean competition ratio” value did it give?
**A.** 0.205

**Q.** How did the “log2 mean competition ratio” value turn out when SKA1 C29 (UniProt Q96BD8) was run?
**A.** 0.355

**Q.** For SPAG1 C552 (UniProt Q07617), which “log2 mean competition ratio” value is on record?
**A.** -0.235

**Q.** With SOS1 C372 (UniProt Q07889) as the target, how does the “log2 mean competition ratio” value read?
**A.** 0.267

**Q.** Which “log2 mean competition ratio” value does the source give for SLC25A5 C57 (UniProt P05141) here?
**A.** -0.0192
